# Repeats are few or missing, and single values can be far off.
# Amino acid sequences for entries named in this document (tags omitted). A change or cut given only in a name is not applied to a line headed by its entry.
# UniProt Q9Y5Y0: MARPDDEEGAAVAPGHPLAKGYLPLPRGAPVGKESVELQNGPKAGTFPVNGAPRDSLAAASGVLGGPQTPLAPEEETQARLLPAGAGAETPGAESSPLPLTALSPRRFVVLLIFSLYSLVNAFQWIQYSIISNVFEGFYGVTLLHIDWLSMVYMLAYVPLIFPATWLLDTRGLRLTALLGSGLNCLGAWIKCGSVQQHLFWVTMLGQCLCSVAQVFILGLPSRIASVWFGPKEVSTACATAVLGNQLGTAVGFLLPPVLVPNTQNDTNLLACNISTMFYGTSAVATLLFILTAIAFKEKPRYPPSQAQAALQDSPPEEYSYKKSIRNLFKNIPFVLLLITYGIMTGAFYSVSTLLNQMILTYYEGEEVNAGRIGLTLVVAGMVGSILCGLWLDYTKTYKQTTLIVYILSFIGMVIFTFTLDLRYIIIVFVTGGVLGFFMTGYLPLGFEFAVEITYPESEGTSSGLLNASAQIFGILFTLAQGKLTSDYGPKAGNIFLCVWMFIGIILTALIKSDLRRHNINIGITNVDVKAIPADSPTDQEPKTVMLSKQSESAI
# UniProt Q9UJX2, whole entry: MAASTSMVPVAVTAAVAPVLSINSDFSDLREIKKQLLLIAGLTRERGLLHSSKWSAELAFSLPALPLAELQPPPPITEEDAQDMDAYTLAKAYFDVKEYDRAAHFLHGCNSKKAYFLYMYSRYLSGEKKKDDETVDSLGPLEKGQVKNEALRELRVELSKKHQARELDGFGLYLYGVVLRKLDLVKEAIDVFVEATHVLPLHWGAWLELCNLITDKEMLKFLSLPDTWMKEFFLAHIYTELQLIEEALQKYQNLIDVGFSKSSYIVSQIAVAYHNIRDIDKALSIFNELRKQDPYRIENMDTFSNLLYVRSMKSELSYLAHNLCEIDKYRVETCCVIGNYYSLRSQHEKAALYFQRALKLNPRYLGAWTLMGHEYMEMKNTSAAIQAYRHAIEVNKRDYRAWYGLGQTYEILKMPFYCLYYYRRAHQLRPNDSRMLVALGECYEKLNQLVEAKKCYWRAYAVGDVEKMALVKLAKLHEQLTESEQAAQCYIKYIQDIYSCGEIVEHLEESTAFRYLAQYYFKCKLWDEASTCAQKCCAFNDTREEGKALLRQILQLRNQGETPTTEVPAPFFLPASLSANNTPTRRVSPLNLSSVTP
# UniProt Q9BUJ2: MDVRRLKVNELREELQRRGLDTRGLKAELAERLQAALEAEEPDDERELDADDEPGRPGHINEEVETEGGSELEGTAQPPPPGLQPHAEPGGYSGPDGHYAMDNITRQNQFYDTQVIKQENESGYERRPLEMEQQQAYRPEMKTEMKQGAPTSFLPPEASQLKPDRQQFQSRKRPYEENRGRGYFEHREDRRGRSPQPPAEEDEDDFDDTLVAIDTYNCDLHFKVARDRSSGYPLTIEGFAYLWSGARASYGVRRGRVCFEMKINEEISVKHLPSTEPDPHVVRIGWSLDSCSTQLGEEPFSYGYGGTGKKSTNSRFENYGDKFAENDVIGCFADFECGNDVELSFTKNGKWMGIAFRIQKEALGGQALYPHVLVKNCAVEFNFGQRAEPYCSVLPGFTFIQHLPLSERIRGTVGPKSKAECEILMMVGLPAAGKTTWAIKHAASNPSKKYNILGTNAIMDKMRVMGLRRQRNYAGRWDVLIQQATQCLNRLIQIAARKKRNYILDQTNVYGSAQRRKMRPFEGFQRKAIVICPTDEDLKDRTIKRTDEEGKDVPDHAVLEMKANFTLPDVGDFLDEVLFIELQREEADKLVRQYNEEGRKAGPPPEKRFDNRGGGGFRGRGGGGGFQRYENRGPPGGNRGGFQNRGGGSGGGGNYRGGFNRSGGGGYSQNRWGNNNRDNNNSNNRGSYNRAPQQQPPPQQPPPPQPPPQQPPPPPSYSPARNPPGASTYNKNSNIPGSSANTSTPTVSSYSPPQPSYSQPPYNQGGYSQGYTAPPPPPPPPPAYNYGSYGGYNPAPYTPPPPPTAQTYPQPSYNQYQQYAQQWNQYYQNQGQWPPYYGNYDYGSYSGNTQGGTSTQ
# UniProt Q16576, whole entry: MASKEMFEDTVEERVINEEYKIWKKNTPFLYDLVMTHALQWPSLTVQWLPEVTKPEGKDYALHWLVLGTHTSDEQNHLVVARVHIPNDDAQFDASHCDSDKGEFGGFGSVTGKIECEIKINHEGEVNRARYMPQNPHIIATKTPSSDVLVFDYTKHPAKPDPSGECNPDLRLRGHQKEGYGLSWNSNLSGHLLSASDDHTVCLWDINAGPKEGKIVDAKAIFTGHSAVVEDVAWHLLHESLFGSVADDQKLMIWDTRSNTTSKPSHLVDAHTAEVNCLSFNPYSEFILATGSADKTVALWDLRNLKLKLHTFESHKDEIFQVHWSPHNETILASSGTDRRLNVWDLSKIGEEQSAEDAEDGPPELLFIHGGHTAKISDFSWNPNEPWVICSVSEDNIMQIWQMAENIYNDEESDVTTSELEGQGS
# UniProt Q9BZJ0: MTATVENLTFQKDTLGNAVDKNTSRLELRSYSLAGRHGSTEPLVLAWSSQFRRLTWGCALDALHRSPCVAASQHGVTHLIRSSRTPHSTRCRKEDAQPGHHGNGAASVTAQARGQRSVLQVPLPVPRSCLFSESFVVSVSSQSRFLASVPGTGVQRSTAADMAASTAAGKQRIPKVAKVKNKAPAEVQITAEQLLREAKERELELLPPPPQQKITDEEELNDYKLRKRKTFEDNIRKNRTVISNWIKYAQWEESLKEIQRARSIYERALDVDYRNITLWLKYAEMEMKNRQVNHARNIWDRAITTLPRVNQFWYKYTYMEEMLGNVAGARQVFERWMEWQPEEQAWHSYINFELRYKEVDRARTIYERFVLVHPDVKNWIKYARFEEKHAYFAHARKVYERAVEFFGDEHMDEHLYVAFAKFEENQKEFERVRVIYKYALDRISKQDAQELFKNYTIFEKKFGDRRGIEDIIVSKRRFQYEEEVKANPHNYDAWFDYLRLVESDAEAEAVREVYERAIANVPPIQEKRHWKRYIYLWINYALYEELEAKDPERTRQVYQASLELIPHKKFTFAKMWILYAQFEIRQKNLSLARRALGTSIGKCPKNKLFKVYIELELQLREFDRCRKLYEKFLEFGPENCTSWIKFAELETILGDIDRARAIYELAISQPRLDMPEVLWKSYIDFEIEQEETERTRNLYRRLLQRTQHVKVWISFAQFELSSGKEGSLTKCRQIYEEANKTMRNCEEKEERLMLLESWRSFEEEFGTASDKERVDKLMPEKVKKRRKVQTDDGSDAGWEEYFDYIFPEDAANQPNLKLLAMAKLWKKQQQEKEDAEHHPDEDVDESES
# A0A087WTH1, A0A087WTH1, UniProt A0A087WTH1, whole entry: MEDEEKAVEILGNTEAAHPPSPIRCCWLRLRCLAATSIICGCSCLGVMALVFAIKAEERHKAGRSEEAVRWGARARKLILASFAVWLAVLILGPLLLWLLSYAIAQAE
# UniProt O14776: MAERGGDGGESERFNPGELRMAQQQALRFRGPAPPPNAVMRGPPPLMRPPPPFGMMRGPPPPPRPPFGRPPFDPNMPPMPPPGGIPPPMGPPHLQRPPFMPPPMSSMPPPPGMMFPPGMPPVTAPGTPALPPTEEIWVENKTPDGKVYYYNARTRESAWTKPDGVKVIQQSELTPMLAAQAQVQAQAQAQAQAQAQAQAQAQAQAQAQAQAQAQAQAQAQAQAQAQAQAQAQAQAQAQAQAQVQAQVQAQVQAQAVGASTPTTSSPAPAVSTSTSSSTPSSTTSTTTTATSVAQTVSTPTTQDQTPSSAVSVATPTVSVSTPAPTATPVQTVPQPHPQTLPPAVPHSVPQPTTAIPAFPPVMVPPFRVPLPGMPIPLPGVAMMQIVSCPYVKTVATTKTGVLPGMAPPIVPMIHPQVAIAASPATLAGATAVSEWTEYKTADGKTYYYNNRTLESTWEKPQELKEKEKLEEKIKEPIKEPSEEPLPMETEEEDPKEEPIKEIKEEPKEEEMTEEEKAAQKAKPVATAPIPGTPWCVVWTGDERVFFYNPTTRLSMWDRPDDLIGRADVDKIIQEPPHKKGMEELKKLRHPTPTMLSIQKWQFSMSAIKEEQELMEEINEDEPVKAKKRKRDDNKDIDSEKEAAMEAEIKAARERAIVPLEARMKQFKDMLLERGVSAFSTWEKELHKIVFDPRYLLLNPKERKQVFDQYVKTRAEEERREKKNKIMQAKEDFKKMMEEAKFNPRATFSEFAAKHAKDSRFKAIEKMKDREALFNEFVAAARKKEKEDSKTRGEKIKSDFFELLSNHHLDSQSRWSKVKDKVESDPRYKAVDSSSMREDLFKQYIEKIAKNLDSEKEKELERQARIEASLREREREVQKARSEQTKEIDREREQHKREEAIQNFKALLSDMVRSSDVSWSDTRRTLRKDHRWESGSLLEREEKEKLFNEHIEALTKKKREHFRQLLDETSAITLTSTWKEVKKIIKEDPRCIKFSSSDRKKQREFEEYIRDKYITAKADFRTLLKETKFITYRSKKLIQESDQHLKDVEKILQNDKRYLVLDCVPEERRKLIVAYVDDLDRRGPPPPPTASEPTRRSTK
# UniProt O60749: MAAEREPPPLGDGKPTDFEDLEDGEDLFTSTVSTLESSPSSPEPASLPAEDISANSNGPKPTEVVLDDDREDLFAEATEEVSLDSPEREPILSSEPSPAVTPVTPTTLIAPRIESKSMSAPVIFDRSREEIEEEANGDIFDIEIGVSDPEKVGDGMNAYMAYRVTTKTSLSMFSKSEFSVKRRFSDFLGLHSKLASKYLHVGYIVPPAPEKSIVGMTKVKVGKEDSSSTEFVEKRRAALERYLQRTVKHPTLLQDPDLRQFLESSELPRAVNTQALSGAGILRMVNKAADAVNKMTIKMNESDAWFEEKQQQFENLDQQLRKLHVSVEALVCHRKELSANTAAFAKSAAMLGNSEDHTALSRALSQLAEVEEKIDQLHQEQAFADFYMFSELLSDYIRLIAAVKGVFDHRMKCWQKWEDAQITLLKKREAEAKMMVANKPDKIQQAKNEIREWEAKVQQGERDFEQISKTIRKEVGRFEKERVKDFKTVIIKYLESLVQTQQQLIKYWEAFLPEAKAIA
# UniProt Q9NX63: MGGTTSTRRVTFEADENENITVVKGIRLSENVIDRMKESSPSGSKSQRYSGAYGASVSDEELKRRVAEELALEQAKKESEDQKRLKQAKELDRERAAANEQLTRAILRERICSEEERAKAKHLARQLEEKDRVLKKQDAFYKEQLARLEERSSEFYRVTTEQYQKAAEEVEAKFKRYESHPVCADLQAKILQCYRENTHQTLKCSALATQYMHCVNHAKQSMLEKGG
# UniProt O94886: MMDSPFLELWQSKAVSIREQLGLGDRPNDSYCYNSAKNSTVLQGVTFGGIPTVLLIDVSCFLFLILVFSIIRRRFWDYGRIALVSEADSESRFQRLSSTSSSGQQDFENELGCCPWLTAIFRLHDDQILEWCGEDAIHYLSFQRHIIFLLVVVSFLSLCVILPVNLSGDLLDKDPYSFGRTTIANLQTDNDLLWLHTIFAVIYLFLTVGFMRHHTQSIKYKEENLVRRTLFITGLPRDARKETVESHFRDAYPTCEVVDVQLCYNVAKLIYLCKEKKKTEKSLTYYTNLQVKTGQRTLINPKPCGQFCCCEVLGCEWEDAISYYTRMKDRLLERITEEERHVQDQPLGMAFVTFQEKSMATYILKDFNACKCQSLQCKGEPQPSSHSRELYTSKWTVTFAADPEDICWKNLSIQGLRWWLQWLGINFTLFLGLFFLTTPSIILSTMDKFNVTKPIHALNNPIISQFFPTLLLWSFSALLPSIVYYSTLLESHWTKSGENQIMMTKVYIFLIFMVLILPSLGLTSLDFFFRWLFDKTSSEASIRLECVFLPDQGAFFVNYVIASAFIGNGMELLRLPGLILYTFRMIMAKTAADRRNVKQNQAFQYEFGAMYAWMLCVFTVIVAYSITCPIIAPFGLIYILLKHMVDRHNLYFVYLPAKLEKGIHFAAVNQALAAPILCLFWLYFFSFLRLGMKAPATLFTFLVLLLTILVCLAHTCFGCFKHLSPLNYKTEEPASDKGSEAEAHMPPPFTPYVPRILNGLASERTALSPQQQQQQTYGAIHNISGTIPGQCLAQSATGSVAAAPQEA
# UniProt Q9NZN3: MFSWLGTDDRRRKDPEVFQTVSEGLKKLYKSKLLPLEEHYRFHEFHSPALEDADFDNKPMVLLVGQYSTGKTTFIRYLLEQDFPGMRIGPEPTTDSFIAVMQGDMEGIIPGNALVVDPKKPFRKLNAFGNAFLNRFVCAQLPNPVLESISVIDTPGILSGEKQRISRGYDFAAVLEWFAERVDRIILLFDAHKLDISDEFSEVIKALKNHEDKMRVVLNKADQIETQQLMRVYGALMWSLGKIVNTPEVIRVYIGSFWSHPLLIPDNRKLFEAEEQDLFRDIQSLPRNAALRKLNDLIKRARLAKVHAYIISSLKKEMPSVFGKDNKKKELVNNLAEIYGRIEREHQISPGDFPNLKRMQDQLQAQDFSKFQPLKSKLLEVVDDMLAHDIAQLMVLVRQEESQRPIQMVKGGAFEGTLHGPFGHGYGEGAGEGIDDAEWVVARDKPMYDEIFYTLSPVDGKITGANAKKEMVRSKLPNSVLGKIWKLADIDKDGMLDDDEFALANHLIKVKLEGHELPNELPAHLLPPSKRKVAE
# Compound: [O-][N+](C(C1=C(C(O)=C2)NC(C(C=C3)=CC=C3Cl)C4C1C=CC4)=C2Cl)=O
# Experiment: melting temperature shift (compound 7 minus DMSO); higher = compound stabilises the protein
# Settings: 10 µM
# Protocol: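 Thermal proteome profiling (TMT mass spectrometry) in intact DAOY medulloblastoma cells or DAOY lysates treated with 10 µM compound 7 or DMSO, heated at 10 temperatures from 40.5 to 73.8 °C for 3 min. Melting curves were fitted with the Bioconductor TPP package, and the melting point difference between compound and vehicle is reported per protein (single curve per condition).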
# [1] = system: DAOY cell lysate, treatment time: 20 min, 4 °C
# [2] = system: intact DAOY cells, treatment time: 90 min, 37 °C
Target,melting temperature shift [1] [°C],melting temperature shift [2] [°C]
NUDT2 (UniProt P50583),-0.627,-0.0498
GGH (UniProt Q92820),-0.996,-1.26
LRR1 (UniProt Q96L50),-0.591,
PAF1 (UniProt Q8N7H5),-0.654,-1.27
ICAM1 (UniProt P05362),4.27,
STOM (UniProt P27105),2.66,-0.713
UniProt Q8N8J7,0.791,
CNOT4 (UniProt O95628),-1.4,0.597
FLVCR1 (UniProt Q9Y5Y0),4.79,-1.17
UniProt Q96MH7,,-1.82
SEC11A (UniProt P67812),0.765,-0.857
CDC23 (UniProt Q9UJX2),0.216,0.286
HNRNPUL1 (UniProt Q9BUJ2),0.103,-2.25
RCN1 (UniProt Q15293),1.09,
EPHA5 (UniProt P54756),,0.397
TMEM9 (UniProt Q9P0T7),-1.18,
UniProt Q5C9Z4,-0.0319,
CLIP1 (UniProt P30622),-0.367,
UniProt Q13164,,1.48
METAP1 (UniProt P53582),-0.761,-3.1
UniProt Q9HBI0,-1.02,-0.823
EIF4E (UniProt P06730),-0.539,0.734
SHCBP1 (UniProt Q8NEM2),-0.647,0.609

Target,melting temperature shift [1] [°C],melting temperature shift [2] [°C]
UniProt P05121,1.09,0.446
UniProt P50281,1.85,0.267
PTPRF (UniProt P10586),0.811,0.507
BCL2L13 (UniProt Q9BXK5),0.178,0.381
PRIM1 (UniProt P49642),-0.986,0.613
ZNF598 (UniProt Q86UK7),0.66,1.23
GNL2 (UniProt Q13823),0.41,
MARK4 (UniProt Q96L34),,0.365
TSG101 (UniProt Q99816),-0.267,0.0652
COX6B1 (UniProt P14854),0.00361,-1.46
UniProt Q14849,1.84,
RNF14 (UniProt Q9UBS8),-0.505,-0.0503
UniProt Q6ZSR9,-0.14,-0.179
UniProt P81274,0.472,-0.219
HDAC7 (UniProt Q8WUI4),-0.597,-0.44
NDUFA12 (UniProt Q9UI09),3.1,-0.301
TXNDC5 (UniProt Q8NBS9),0.953,1.01
RBBP7 (UniProt Q16576),-0.336,0.669
ACADVL (UniProt P49748),0.98,-0.255
PICALM (UniProt Q13492),-0.657,-0.422
ALG2 (UniProt Q9H553),,-0.741
CHAC2 (UniProt Q8WUX2),-0.599,0.293
UniProt Q6UXS9,,1.07

Target,melting temperature shift [1] [°C],melting temperature shift [2] [°C]
CRNKL1 (UniProt Q9BZJ0),-0.587,-0.237
UniProt Q5JXB2,,-0.379
RBBP9 (UniProt O75884),-0.557,
CEP55 (UniProt Q53EZ4),,0.628
UniProt Q9BT88,,1.39
AKT1 (UniProt P31749),-0.653,1.59
PITRM1 (UniProt Q5JRX3),-0.027,2.91
NGLY1 (UniProt Q96IV0),0.497,
MAP4 (UniProt P27816),-1.33,
UniProt Q9BY11,,2.64
"A0A087WTH1, A0A087WTH1",-0.768,
RFT1 (UniProt Q96AA3),4.98,-2.28
UniProt Q9P0P8,-3.08,-0.691
MRPL15 (UniProt Q9P015),0.834,-1.16
RPL35 (UniProt P42766),0.515,-0.855
TLE3 (UniProt Q04726),-0.157,0.312
CTNNA1 (UniProt P35221),0.478,0.0628
RALB (UniProt P11234),2.54,-0.96
PITPNB (UniProt P48739),-0.562,0.274
NDUFA4 (UniProt O00483),2.98,-0.769
TCERG1 (UniProt O14776),-0.0869,-0.308
UniProt Q9Y2H1,-1.5,0.31
HUS1 (UniProt O60921),-0.561,2.46

Target,melting temperature shift [1] [°C],melting temperature shift [2] [°C]
SCAMP4 (UniProt Q969E2),-0.745,
GNPAT (UniProt O15228),0.676,0.635
AARSD1 (UniProt Q9BTE6),-0.316,0.678
UniProt Q5VWK5,,0.531
SNX2 (UniProt O60749),-1.04,-1.44
UniProt Q7L9L4,-1.36,0.236
ZNHIT6 (UniProt Q9NWK9),-0.231,0.61
TTC27 (UniProt Q6P3X3),-0.947,0.39
NSDHL (UniProt Q15738),1.29,2.85
UniProt P23470,0.828,
UniProt Q9NWA0,-5.9,
MRPL3 (UniProt P09001),-0.74,0.235
CHCHD3 (UniProt Q9NX63),2.91,-0.187
HINT3 (UniProt Q9NQE9),2.06,-0.35
VCPIP1 (UniProt Q96JH7),0.36,0.497
UniProt P20929,,0.488
SPC25 (UniProt Q9HBM1),0.00287,1.83
TMED7 (UniProt Q9Y3B3),0.725,-1.92
TMEM63A (UniProt O94886),,-1.36
GBA (UniProt P04062),0.797,0.635
PTPN1 (UniProt P18031),0.303,-0.97
DHX38 (UniProt Q92620),-0.0805,-0.144
NAF1 (UniProt Q96HR8),-0.427,2.79

# Whole records from above:
# PRIM1 (UniProt P49642) is listed with melting temperature shift [1] [°C] = -0.986; melting temperature shift [2] [°C] = 0.613
# UniProt Q6ZSR9 is listed with melting temperature shift [1] [°C] = -0.14; melting temperature shift [2] [°C] = -0.179
# UniProt Q9P0P8 is listed with melting temperature shift [1] [°C] = -3.08; melting temperature shift [2] [°C] = -0.691
# CDC23 (UniProt Q9UJX2) is listed with melting temperature shift [1] [°C] = 0.216; melting temperature shift [2] [°C] = 0.286

# Next entries:

Target,melting temperature shift [1] [°C],melting temperature shift [2] [°C]
UniProt Q9HAU4,0.505,
P86790 (UniProt P86791),-1.15,-0.043
STT3A (UniProt P46977),0.897,-0.931
UniProt O15321,2.39,-0.442
UniProt O00144,,1.93
CDK4 (UniProt P11802),-1.26,0.784
YWHAG (UniProt P61981),-1.19,1.26
PPP4R3A (UniProt Q6IN85),-0.516,0.186
EDC3 (UniProt Q96F86),-0.512,0.0898
PARD6B (UniProt Q9BYG5),1.18,-0.491
DPP8 (UniProt Q6V1X1),,-0.21
UniProt Q99569,0.851,
TAMM41 (UniProt Q96BW9),-0.289,0.0226
ADA (UniProt P00813),-1.68,-0.481
C21ORF59 (UniProt P57076),-0.33,1.2
UniProt Q9BYI3,-0.702,
UniProt Q92993,0.912,
FAM114A2 (UniProt Q9NRY5),-0.192,-0.156
UniProt Q9NZN3,-0.62,-0.583
PSMB7 (UniProt Q99436),-0.167,0.213
UniProt Q96NI8,,-0.306
PRKAR1A (UniProt P10644),0.714,-0.144

# Source: the supplement of paper PMC10060354, “Discovery of a small molecule ligand of FRS2 that inhibits invasion and tumor growth” (Cellular Oncology, 2022)
